For at least one entry, the source does not settle the construct or the ends of the probe. For some assays here: A negative result means that nothing was seen under these conditions. Protein sequences can lack the tags named with them.
Legend:
McMYB10 (MBP fusion) [1] = molecular target: T1, McMYB10 (MBP fusion) (UniProt J7H7H0); test: competition with a labelled probe; conditions: 1000-fold mutant probe against biotin probe, no evidence of competition; LightShift Chemiluminescent EMSA Kit per manufacturer, about 10 ug purified McMYB10 per reaction; temperature not stated; recombinant protein; protein details: MBP (pMAL-C2X)
T1 sequence (looked up, limits assumed): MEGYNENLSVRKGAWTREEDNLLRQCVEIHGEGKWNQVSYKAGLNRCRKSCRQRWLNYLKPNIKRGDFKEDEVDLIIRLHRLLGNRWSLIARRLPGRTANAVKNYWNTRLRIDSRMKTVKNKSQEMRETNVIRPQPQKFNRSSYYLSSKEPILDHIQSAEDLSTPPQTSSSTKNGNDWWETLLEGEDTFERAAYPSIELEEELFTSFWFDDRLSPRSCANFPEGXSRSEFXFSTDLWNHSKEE

McMYB10 (MBP fusion) [2] = molecular target: T1, McMYB10 (MBP fusion); test: EMSA; conditions: unlabelled probe (10- to 1000-fold) competes; LightShift Chemiluminescent EMSA Kit per manufacturer, about 10 ug purified McMYB10 per reaction; temperature not stated; recombinant protein; protein details: MBP (pMAL-C2X); label: biotin (labelled probe), unlabelled as competitor

Row | Sequence | binding result (McMYB10 (MBP fusion) [1]) | binding result (McMYB10 (MBP fusion) [2])
1 | GCTCATCTCAAATTTTTGGGTGCCAATCCATGATTGGTTAGCTGG (double strand) [mProbe] | no binding | 
2 | GCTCCTCCCAAATTTTTGGGCAGTTATCCATGGGTGGTGCGCTGG (double strand) [proMcCOP1 Probe (MBS and Sp1)] |  | binds

Source: paper PMC5994411
